Laboratory results reported in PMC3224144.
Results are given in words; binding and its absence hold for the method and conditions named. Binding calls can cover weak binding; strength is not graded here.

Experiments:
Experiment in all cases: two-hybrid; array-based yeast two-hybrid screens; each protein as bait (Gal4 DNA-binding domain) and as prey (Gal4 activation domain), N- and C-terminal fusions; bait-prey vector pairs pDEST32-pDEST22, pGBKT7g-pGADT7g, pGBKT7g-pGADCg, pGBKCg-pGADCg, pGBKCg-pGADT7g; ten configurations a pair; positives retested
[1] = biological target: T1, DNA packaging protein A (bacteriophage lambda) (UniProt P03708)
T1 sequence: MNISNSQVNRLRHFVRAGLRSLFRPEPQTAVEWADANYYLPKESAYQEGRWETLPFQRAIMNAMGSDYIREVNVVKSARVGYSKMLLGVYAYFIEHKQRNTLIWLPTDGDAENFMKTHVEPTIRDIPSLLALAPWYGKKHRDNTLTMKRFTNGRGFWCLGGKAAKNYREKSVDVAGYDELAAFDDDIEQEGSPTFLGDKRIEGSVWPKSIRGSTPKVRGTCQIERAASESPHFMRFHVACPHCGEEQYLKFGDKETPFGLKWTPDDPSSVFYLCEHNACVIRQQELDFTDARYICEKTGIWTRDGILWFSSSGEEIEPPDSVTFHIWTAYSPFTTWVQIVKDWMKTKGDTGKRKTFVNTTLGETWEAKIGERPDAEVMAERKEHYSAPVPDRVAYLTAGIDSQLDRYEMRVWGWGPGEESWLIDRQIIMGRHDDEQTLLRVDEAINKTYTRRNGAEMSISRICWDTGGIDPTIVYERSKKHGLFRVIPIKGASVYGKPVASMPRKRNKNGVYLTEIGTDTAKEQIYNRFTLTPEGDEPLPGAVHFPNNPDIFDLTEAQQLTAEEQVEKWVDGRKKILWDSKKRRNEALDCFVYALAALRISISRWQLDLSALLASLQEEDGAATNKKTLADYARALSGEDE

[2] = biological target: T2, C protease (bacteriophage lambda) (UniProt P03711)
T2 sequence: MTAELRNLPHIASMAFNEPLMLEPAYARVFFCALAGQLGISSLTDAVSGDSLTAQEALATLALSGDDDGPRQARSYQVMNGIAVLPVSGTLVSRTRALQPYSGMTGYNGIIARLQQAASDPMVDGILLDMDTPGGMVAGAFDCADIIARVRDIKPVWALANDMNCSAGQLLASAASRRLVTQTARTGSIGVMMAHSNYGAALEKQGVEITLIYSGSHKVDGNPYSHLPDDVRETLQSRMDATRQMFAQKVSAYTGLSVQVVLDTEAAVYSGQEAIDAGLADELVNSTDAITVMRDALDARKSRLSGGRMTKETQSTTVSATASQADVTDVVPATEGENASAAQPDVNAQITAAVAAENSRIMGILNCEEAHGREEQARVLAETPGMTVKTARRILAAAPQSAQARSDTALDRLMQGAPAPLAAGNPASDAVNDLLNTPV

M (bacteriophage lambda) = biological target: T3, M (bacteriophage lambda) (UniProt P03737)
T3 sequence: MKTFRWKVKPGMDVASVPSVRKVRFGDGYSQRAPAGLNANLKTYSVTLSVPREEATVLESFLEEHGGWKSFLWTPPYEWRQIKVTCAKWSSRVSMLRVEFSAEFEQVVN

[3] = biological target: T4, major capsid protein E (bacteriophage lambda) (UniProt P03713)
T4 sequence: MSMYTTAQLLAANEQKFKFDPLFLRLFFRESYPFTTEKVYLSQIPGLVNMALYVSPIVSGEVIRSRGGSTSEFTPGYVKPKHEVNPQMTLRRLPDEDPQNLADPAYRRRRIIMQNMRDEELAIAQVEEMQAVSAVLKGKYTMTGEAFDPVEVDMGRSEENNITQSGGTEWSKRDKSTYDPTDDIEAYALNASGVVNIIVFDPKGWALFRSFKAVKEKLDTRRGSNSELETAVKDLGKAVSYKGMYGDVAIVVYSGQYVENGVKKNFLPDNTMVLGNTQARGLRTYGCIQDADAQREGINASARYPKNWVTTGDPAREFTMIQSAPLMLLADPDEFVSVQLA

[4] = biological target: T5, RexB (bacteriophage lambda) (UniProt P03759)
T5 sequence: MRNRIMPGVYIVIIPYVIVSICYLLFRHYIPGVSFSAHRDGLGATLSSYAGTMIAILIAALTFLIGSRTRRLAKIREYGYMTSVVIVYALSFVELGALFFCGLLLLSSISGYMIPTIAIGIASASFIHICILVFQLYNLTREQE

U (bacteriophage lambda) = biological target: T6, U (bacteriophage lambda) (UniProt P03732)
T6 sequence: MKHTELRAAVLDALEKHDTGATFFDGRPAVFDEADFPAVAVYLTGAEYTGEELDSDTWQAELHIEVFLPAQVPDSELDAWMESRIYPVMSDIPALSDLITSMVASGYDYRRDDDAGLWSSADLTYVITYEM

[5] = biological target: Ea8.5 (bacteriophage lambda)
[6] = biological target: NinI (Ser/Thr protein phosphatase) (bacteriophage lambda)
[7] = biological target: Orf63 (bacteriophage lambda)
[8] = biological target: Orf35 (bacteriophage lambda)

## Orf79 (bacteriophage lambda)
[1]
  binding: binds
[2]
  binding: binds

## Orf35 (bacteriophage lambda)
M (bacteriophage lambda)
  binding: binds

## scaffolding protein Nu3 (bacteriophage lambda)
[3]
  binding: binds
M (bacteriophage lambda)
  binding: binds

## Orf78 (bacteriophage lambda)
[4]
  binding: binds
U (bacteriophage lambda)
  binding: binds

B1: antiterminator Q (protein, UniProt P03047 1-207)
chain: MRLESVAKFHSPKSPMMSDSPRATASDSLSGTDVMAAMGMAQSQAGFGMAAFCGKHELSQNDKQKAINYLMQFAHKVSGKYRGVAKLEGNTKAKVLQVLATFAYADYCRSAATPGARCRDCHGTGRAVDIAKTELWGRVVEKECGRCKGVGYSRMPASAAYRAVTMLIPNLTQPTWSRTVKPLYDALVVQCHKEESIADNILNAVTR
[5]
  binding: binds
[6]
  binding: binds
[7]
  binding: binds

B2: P (protein, UniProt P03689 1-233)
chain: MKNIAAQMVNFDREQMRRIANNMPEQYDEKPQVQQVAQIINGVFSQLLATFPASLANRDQNEVNEIRRQWVLAFRENGITTMEQVNAGMRVARRQNRPFLPSPGQFVAWCREEASVTAGLPNVSELVDMVYEYCRKRGLYPDAESYPWKSNAHYWLVTNLYQNMRANALTDAELRRKAADELVHMTARINRGEAIPEPVKQLPVMGGRPLNRAQALAKIAEIKAKFGLKGASV
[7]
  binding: binds

B3: CII (protein, UniProt P03042 1-97)
chain: MVRANKRNEALRIESALLNKIAMLGTEKTAEAVGVDKSQISRWKRDWIPKFSMLLAVLEWGVVDDDMARLARQVAAILTNKKRPAATERSEQIQMEF
[8]
  binding: binds

B4: tail fiber protein Tfa (protein, UniProt P03740 1-194)
chain: MAFRMSEQPRTIKIYNLLAGTNEFIGEGDAYIPPHTGLPANSTDIAPPDIPAGFVAVFNSDEASWHLVEDHRGKTVYDVASGDALFISELGPLPENFTWLSPGGEYQKWNGTAWVKDTEAEKLFRIREAEETKKSLMQVASEHIAPLQDAADLEIATKEETSLLEAWKKYRVLLNRVDTSTAPDIEWPAVPVME
[5]
  binding: binds

B5: tail fiber protein Stf (protein, UniProt P03740 1-194)
chain: B4 chain
[5]
  binding: binds

B6: K (protein, UniProt P03729 1-199)
chain: MSPEDWLQAEMQGEIVALVHSHPGGLPWLSEADRRLQVQSDLPWWLVCRGTIHKFRCVPHLTGRRFEHGVTDCYTLFRDAYHLAGIEMPDFHREDDWWRNGQNLYLDNLEATGLYQVPLSAAQPGDVLLCCFGSSVPNHAAIYCGDGELLHHIPEQLSKRERYTDKWQRRTHSLWRHRAWRASAFTGIYNDLVAASTFV
[8]
  binding: binds

B7: Integrase (Int) (protein, UniProt P03700 1-356)
chain: MGRRRSHERRDLPPNLYIRNNGYYCYRDPRTGKEFGLGRDRRIAITEAIQANIELFSGHKHKPLTARINSDNSVTLHSWLDRYEKILASRGIKQKTLINYMSKIKAIRRGLPDAPLEDITTKEIAAMLNGYIDEGKAASAKLIRSTLSDAFREAIAEGHITTNHVAATRAAKSEVRRSRLTADEYLKIYQAAESSPCWLRLAMELAVVTGQRVGDLCEMKWSDIVDGYLYVEQSKTGVKIAIPTALHIDALGISMKETLDKCKEILGGETIIASTRREPLSSGTVSRYFMRARKASGLSFEGDPPTFHELRSLSARLYEKQISDKFAQHLLGHKSDTMASQYRDDRGREWDKIEIK
[8]
  binding: binds
[5]
  binding: binds

B8: antiterminator N (protein, UniProt P03045 1-107)
chain: MDAQTRRRERRAEKQAQWKAANPLLVGVSAKPVNRPILSLNRKPKSRVESALNPIDLTVLAEYHKQIESNLQRIERKNQRTWYSKPGERGITCSGRQKIKGKSIPLI
[6]
  binding: binds
[7]
  binding: binds

B9: Rz1 (protein, UniProt Q37935 1-60)
chain: MLKLKMMLCVMMLPLVVVGCTSKQSVSQCVKPPPPPAWIMQPPPDWQTPLNGIISPSERG
[7]
  binding: binds
